Results on two molecules are retold here after patent publication US20170306017A1 (VACCINEX, published 2017).

Assay [1] has as its target CD100 (species not stated). Briefly: antibody cross-blocking ELISA. (ELISA stands for enzyme-linked immunosorbent assay.)
The target in assay [2] is cynomolgus monkey SEMA4D (cellular target on lysed whole blood cells) (cynomolgus monkey). The assay can be described thus: flow cytometry-based saturation assay on lysed whole blood of cynomolgus monkeys after a single intravenous injection of MAb 2503.

No constants are given. Whether binding was seen depends on the method and setting. Binding calls can cover weak binding; strength is not graded here.

B1: MAb 76 (antibody, IgG2b, V domains shown)
VH: QVQLQQSGAELAKPGASVKMSCKASGYTFTRYWMHWVKQRPGQGLEWIGYINPSTGYSDYNQKFKDKATLTADKSSSTAYMQLSSLTSEDSAVYYCARDPYGWTMDSWGQGTLVTVSS
VL: DIQMTQSPSSLSASLGDTITITCHASQNINVWLSWYQQKPGNIPKLLIYKASNLHTGVPSRFSGSGSGTGFTLTISSLQPEDIATYYCQQGQSYPYTFGGGTKLEIK
notes: also called clone 76-1; 76-1
For the molecule B1, the binding result in assay [1] is on record as “binds”.

B2: MAb 2503 (antibody, V domains shown)
VH: QVQLVQSGAEVKKPGSSVKVSCKASGYSFSDYYMHWVRQAPGQGLEWMGQINPTTGGASYNQKFKGKATITVDKSTSTAYMELSSLRSEDTAVYYCARYYYGRHFDVWGQGTTVTVSS
VL: DIVMTQSPDSLAVSLGERATINCKASQSVDYDGDSYMNWYQQKPGQPPKLLIYAASNLESGVPDRFSGSGSGTDFTLTISSLQAEDVAVYYCQQSNEDPYTFGQGTKLEIK
notes: also called humanized MAb 67; H2160/L553
Regarding B2, the binding entry in assay [2] is given as “binds”.
